Earlier results as cited in patent publication US20050090457A1, “Method of treating mammals with genistein and/or genistein analogues” (N.V. NUTRICIA, priority 2002, published 2005).
For at least one compound, name, drawing or mass did not settle the structure.

Molecular target: T1, PPARγ (Mus musculus, UniProt P37238)
T1 construct: host or cells: mouse macrophages
T1 sequence (P37238 1-505): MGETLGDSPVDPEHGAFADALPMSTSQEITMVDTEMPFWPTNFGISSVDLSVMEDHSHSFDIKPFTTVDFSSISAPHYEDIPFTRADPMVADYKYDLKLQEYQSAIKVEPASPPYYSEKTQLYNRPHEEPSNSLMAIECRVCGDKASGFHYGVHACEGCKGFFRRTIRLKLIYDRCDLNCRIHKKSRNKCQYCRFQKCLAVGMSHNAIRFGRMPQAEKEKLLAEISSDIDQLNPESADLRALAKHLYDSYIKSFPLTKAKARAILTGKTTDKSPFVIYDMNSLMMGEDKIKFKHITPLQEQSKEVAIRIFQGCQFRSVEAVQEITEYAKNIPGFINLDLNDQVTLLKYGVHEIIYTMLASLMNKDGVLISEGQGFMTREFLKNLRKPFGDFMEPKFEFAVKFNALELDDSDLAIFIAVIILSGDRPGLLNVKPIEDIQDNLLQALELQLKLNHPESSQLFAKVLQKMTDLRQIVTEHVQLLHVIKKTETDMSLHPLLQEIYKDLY
Details: may act as allosteric effectors; cited from earlier work

O=c1cc(-c2ccccc2)oc2cc(O)cc(O)c12 [chrysin]
PPARγ binding and activation: able to bind and activate PPARγ
